# Laboratory results taken from the supplement of paper PMC10689618.
# Where a name gives a salt, the structure may show the parent alone. The list shows a part of the results. Single values are uncertain, as repeats are few or missing.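 Primary human fetal astrocytes engulfed labelled rat cortical synaptosomes, measured as a red/green ratio corrected for calcein live-cell signal and scaled to the plate median. Toxicity meant calcein falling over 30%; decreased phagocytosis meant below 70% of median above 5 µM.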
# Key:
# Human fetal astrocytes [1] = assay: loss of total cells relative to no-compound high-control median (toxicity); higher = more toxic (fewer cells); conditions: 24 h
# Human fetal astrocytes [2] = assay: synaptosome phagocytosis (pHrodo/calcein intensity ratio) relative to plate median of data wells; higher = more phagocytosis; conditions: 24 h
Compound,loss of total cells (Human fetal astrocytes [1]; 1.39 µM) [%],loss of total cells (Human fetal astrocytes [1]; 2.78 µM) [%],loss of total cells (Human fetal astrocytes [1]; 5.56 µM) [%],loss of total cells (Human fetal astrocytes [1]; 11.11 µM) [%],loss of total cells (Human fetal astrocytes [1]; 22.22 µM) [%],synaptosome phagocytosis (Human fetal astrocytes [2]; 1.39 µM) [%],synaptosome phagocytosis (Human fetal astrocytes [2]; 2.78 µM) [%],synaptosome phagocytosis (Human fetal astrocytes [2]; 5.56 µM) [%],synaptosome phagocytosis (Human fetal astrocytes [2]; 11.11 µM) [%],synaptosome phagocytosis (Human fetal astrocytes [2]; 22.22 µM) [%]
CC[C@]1(O)C[C@@H]2CN(CCc3c([nH]c4ccccc34)[C@@](C(=O)OC)(c3cc4c(cc3OC)N(C)[C@H]3[C@@](O)(C(=O)OC)[C@H](OC(C)=O)[C@]5(CC)C=CCN6CC[C@]43[C@@H]65)C2)C1 [Vinblastine sulfate salt],0.9,6.9,22.5,34.1,-5.8,86.7,105,114,120,102
CC(C)C[C@H](NC(=O)[C@H]1O[C@@H]1C(=O)O)C(=O)NCCCCN=C(N)N,14.6,-5.1,0.8,2.2,4.8,96.6,65.5,90.1,138,87.5
CCCCCCCCCCCCCCCCCCNC(=O)OCC(COP(=O)([O-])OCC[n+]1ccsc1)OC (stereo not given),12.7,-3.9,3.4,-2.7,-23.9,87.3,76.3,117,91.4,127
COC(=O)C1=C(C)NC(C)=C([N+](=O)[O-])C1c1ccccc1C(F)(F)F (racemic),-16.5,-7.2,-13.4,-26.5,-1.9,109,104,87.5,83.9,110
"CN(C)c1nc(N)c(C(=O)NC(=N)N)nc1Cl [5-(N,N-Dimethyl)amiloride hydrochloride]",-22.8,-12.9,-2.3,-7.6,-6.4,88.7,91.6,87.6,97.8,94.2
CC(=O)O[C@H]1C[C@@]2(C)[C@@H](C[C@@H](O)[C@H]3[C@@]4(C)CC[C@@H](O)[C@@H](C)[C@@H]4CC[C@@]32C)/C1=C(\CCC=C(C)C)C(=O)O [Fusidic acid sodium],9.6,-29.1,-9.9,-19.3,5.6,82.1,95.6,86.3,112,115
NC(C(=O)O)C(O)C(=O)O (racemic) [DL-threo-beta-hydroxyaspartic acid],-41.4,-17.9,-14,-11.2,3.2,97.3,114,92.9,98.9,145
Oc1cc2c(cc1O)CN(C(=S)NCCc1ccc(Cl)cc1)CCC2 [Capsazepine],-28.9,-20.5,-23,13.9,6.4,93.2,94.8,83.7,102,85.2
Cn1cnc2c(NCc3ccccc3)nc(NCCO)nc21 [Olomoucine],-28,2.3,-1.4,-7.6,6.5,87,139,122,100,136
CCCCNc1c(C(=O)OCC)c(C)nc2c1cnn2CC [Tracazolate],-26.4,-24.9,-10.7,-6.5,0.8,118,88.7,121,119,108
COC(=O)C(C)(N)Cc1ccc(O)cc1 (racemic) [alpha-Methyl-DL-tyrosine methyl ester hydrochloride],-28.9,-7.7,-14.6,6.7,16.8,114,74.6,81.7,83.8,116
COc1cc(C(O)C(=O)O)ccc1O (racemic) [(±)-Vanillylmandelic acid],1.3,-7.7,5.8,-22.9,-2.4,97.6,136,102,89.4,104
CC(C)(C)NC[C@H](O)COc1nsnc1N1CCOCC1 [S(-)-Timolol maleate],-32.6,-24.3,-11.8,-13.4,-37,97,87.5,94.4,98.4,91.8
N#CC(=C(/N)Sc1ccccc1N)/C(C#N)=C(/N)Sc1ccccc1N,-11.5,-18.9,-18.5,-8.8,-23.9,96.9,109,105,97.6,65.5
Nc1ncnc2c1nc(Br)n2C1OC2COP(=O)(O)O[C@@H]2C1O (stereo not given in full) [8-Bromo-cAMP sodium],-5.5,-5.1,-6.9,-3.1,5.6,115,132,86.2,112,108
C[C@@H](N)[C@H]1CC[C@H](C(=O)Nc2ccncc2)CC1,-13.8,-22.2,16.5,-10.3,-25.6,102,88.4,74.5,46.1,66
COc1cc(-c2ccc(=O)[nH]n2)ccc1OC(F)F [Zardaverine],-20.2,-6.3,-2.8,-18.8,-34.6,99,90.6,109,128,109
NCCCCCCNS(=O)(=O)c1cccc2c(Cl)cccc12 [W-7 hydrochloride],-4,-1.2,0.5,-2.2,14.7,85.9,112,100,100,95.2

Compound,loss of total cells (Human fetal astrocytes [1]; 1.39 µM) [%],loss of total cells (Human fetal astrocytes [1]; 2.78 µM) [%],loss of total cells (Human fetal astrocytes [1]; 5.56 µM) [%],loss of total cells (Human fetal astrocytes [1]; 11.11 µM) [%],loss of total cells (Human fetal astrocytes [1]; 22.22 µM) [%],synaptosome phagocytosis (Human fetal astrocytes [2]; 1.39 µM) [%],synaptosome phagocytosis (Human fetal astrocytes [2]; 2.78 µM) [%],synaptosome phagocytosis (Human fetal astrocytes [2]; 5.56 µM) [%],synaptosome phagocytosis (Human fetal astrocytes [2]; 11.11 µM) [%],synaptosome phagocytosis (Human fetal astrocytes [2]; 22.22 µM) [%]
Cc1cccc(C2CN(C)CCc3c2cc(O)c(O)c3Cl)c1 (stereo not given),-7.8,-33.8,-25.8,-10.3,-23,99.9,87.8,102,95.9,91.6
S=C(S)OC1CC2CC1C1CCCC21 [D-609 potassium],-26.4,-25.4,-7.9,1.1,-18.9,99.4,108,116,103,93.3
O=C(OCCN1CCOCC1)C1(c2ccccc2)CCCCC1,-12.8,-10.4,10.8,19,12.1,103,118,92,126,80.2
CN1CCN(C2Cc3ccccc3Sc3ccc(Cl)cc32)CC1 (racemic) [(±)-Octoclothepin maleate],-28.9,4.1,1.4,-3.8,24.3,97.2,108,92.2,79.7,52.9
Clc1ccc(C(c2ccc(Cl)cc2)[n+]2ccn(CC(OCc3ccc(Cl)cc3Cl)c3ccc(Cl)cc3Cl)c2)cc1 (stereo not given) [Calmidazolium chloride],-1.8,-14.7,-36.4,-3.1,65.8,110,111,88.8,75.1,58.5
O=C(N[C@@H](Cc1ccccc1)C(=O)CCl)OCc1ccccc1 [Z-L-Phe chloromethyl ketone],-18,-12,-10.6,8.5,59.8,92.9,93.1,75.1,23.9,2.1
O=c1c(O)c(-c2ccc(O)c(O)c2)oc2cc(O)cc(O)c12 [Quercetin dihydrate],-23.3,-11.7,-4.5,-9.6,-9.1,93.3,105,83.7,89.3,71.2
"O=c1oc(Cl)c(Cl)c2ccccc12 [3,4-Dichloroisocoumarin]",14.6,-23.1,-1.6,-2.2,4,111,110,95.8,108,93.1
COc1ccc2[nH]c(I)c(CCNC(C)=O)c2c1 [2-Iodomelatonin],2.9,2.6,2.5,0.4,-6.4,122,124,89.3,92.8,98.9
O=c1[nH]c(=O)c2nc3ccccc3nc2[nH]1 [Alloxazine],-19.8,-7.5,16.1,-2.2,4.1,85.4,93.2,102,71.5,91.9
C=CCN1CCc2c(cc(O)c(O)c2Br)[C@@H](c2ccccc2)C1 [R(+)-6-Bromo-APB hydrobromide],-17.6,-17.7,-13.4,-23.8,3.4,82.4,88.7,107,92.3,80.8
CC(C)NCC(O)COc1ccc(CCOCC2CC2)cc1 (stereo not given) [Betaxolol hydrochloride],2.2,-10.8,-18,4,-7.9,110,91.8,108,106,120
CCCCCCCCCCCCCCSCC(=O)O [Tetradecylthioacetic acid],-11.5,-16.5,-8.4,10.3,-7.4,108,109,116,146,112
NCCNS(=O)(=O)c1cccc2cnccc12 [H-9 dihydrochloride],4,4.8,4.1,-17.5,-7.1,108,101,92.3,81.3,90.2
CC(N)(C(=O)O)c1ccc(C(=O)O)cc1 (racemic) [(±)-alpha-Methyl-4-carboxyphenylglycine],-19.4,-8.6,12.7,21.9,10.3,98.5,88.4,111,76.8,96.6
C[C@]12CCC(=O)C=C1CC[C@@H]1[C@@H]2[C@@H](O)C[C@@]2(C)[C@H]1CC[C@]2(O)C(=O)COC(=O)CCC(=O)O [Hydrocortisone 21-hemisuccinate sodium],9.6,-6.8,0.8,-30,17.6,74.5,106,101,113,104
O=C1O/C(=C/Br)CCC1c1cccc2ccccc12 (stereo not given) [Bromoenol lactone],-37.8,2.1,-6.9,-10.3,-9.4,105,80.2,77.3,101,71.7

# A draw from above in order of SMILES length, smallest number first:
Compound,loss of total cells (Human fetal astrocytes [1]; 1.39 µM) [%],loss of total cells (Human fetal astrocytes [1]; 2.78 µM) [%],loss of total cells (Human fetal astrocytes [1]; 5.56 µM) [%],loss of total cells (Human fetal astrocytes [1]; 11.11 µM) [%],loss of total cells (Human fetal astrocytes [1]; 22.22 µM) [%],synaptosome phagocytosis (Human fetal astrocytes [2]; 1.39 µM) [%],synaptosome phagocytosis (Human fetal astrocytes [2]; 2.78 µM) [%],synaptosome phagocytosis (Human fetal astrocytes [2]; 5.56 µM) [%],synaptosome phagocytosis (Human fetal astrocytes [2]; 11.11 µM) [%],synaptosome phagocytosis (Human fetal astrocytes [2]; 22.22 µM) [%]
S=C(S)OC1CC2CC1C1CCCC21 [D-609 potassium],-26.4,-25.4,-7.9,1.1,-18.9,99.4,108,116,103,93.3
"O=c1oc(Cl)c(Cl)c2ccccc12 [3,4-Dichloroisocoumarin]",14.6,-23.1,-1.6,-2.2,4,111,110,95.8,108,93.1
NCCNS(=O)(=O)c1cccc2cnccc12 [H-9 dihydrochloride],4,4.8,4.1,-17.5,-7.1,108,101,92.3,81.3,90.2
CC(C)NCC(O)COc1ccc(CCOCC2CC2)cc1 (stereo not given) [Betaxolol hydrochloride],2.2,-10.8,-18,4,-7.9,110,91.8,108,106,120
O=C(OCCN1CCOCC1)C1(c2ccccc2)CCCCC1,-12.8,-10.4,10.8,19,12.1,103,118,92,126,80.2
CN1CCN(C2Cc3ccccc3Sc3ccc(Cl)cc32)CC1 (racemic) [(±)-Octoclothepin maleate],-28.9,4.1,1.4,-3.8,24.3,97.2,108,92.2,79.7,52.9
Cc1cccc(C2CN(C)CCc3c2cc(O)c(O)c3Cl)c1 (stereo not given),-7.8,-33.8,-25.8,-10.3,-23,99.9,87.8,102,95.9,91.6
O=c1c(O)c(-c2ccc(O)c(O)c2)oc2cc(O)cc(O)c12 [Quercetin dihydrate],-23.3,-11.7,-4.5,-9.6,-9.1,93.3,105,83.7,89.3,71.2
C=CCN1CCc2c(cc(O)c(O)c2Br)[C@@H](c2ccccc2)C1 [R(+)-6-Bromo-APB hydrobromide],-17.6,-17.7,-13.4,-23.8,3.4,82.4,88.7,107,92.3,80.8
